Patent US20090170108A1
Substitutions are numbered along the chain they refer to. These are yes or no findings as the source states them, for the method shown. For some of these results: Binding seen in cells or lysates may run through a third protein. Some binding calls cover weakened binding; strength is not graded here. For some of these results: Sequences can lack the tags named with a protein. Blank lines part the entries; values can stand above or below the binder they belong to.

Experiments:
[1] = target: T1, macrophage migration inhibitory factor (MIF), endogenous, of human ATL2 and HL60 cells (human) (UniProt P14174); test: co-immunoprecipitation from ATL2 culture supernatant with anti MIF antibody, Western blot with anti TRX antibody ADF11
T1 sequence: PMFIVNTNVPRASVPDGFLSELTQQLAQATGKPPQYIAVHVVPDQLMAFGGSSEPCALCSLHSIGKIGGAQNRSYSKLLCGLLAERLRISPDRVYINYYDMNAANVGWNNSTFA

[2] = target: T1, macrophage migration inhibitory factor (MIF), endogenous, of human ATL2 and HL60 cells (human); test: co-immunoprecipitation from ATL2 and HL60 cell lysates with anti MIF antibody, Western blot with anti TRX antibody ADF11
[3] = target: T1, macrophage migration inhibitory factor (MIF), endogenous, of human ATL2 and HL60 cells (human); test: co-immunoprecipitation from cell lysate with anti MIF antibody, Western blot with anti TRX antibody ADF11
[4] = target: T2, His-tagged recombinant MIF (rMIF) expressed in Escherichia coli with vector pQE30 (Homo sapiens (Human)) (UniProt P14174); test: SPR (BIAcore2000), rMIF immobilised on CM5 chip, rTRX analyte 2 to 12 µM
T2 sequence: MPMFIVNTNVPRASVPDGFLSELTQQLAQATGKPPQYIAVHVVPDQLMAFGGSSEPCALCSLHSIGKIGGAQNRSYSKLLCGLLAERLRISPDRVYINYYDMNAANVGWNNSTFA

[5] = target: T2, His-tagged recombinant MIF (rMIF) expressed in Escherichia coli with vector pQE30 (Homo sapiens (Human)); test: SPR (BIAcore2000), rMIF immobilised on CM5 chip, rTRX 5 µM alone or mixed with test substance (5 or 500 µM)
[6] = target: T2, His-tagged recombinant MIF (rMIF) expressed in Escherichia coli with vector pQE30 (Homo sapiens (Human)); test: SPR (BIAcore2000), sensor chip NTA, rTRX analyte
[7] = target: T2, His-tagged recombinant MIF (rMIF) expressed in Escherichia coli with vector pQE30 (Homo sapiens (Human)); test: SPR (BIAcore2000), rMIF immobilised on CM5 chip
[8] = target: T2, His-tagged recombinant MIF (rMIF) expressed in Escherichia coli with vector pQE30 (Homo sapiens (Human)); test: SPR (BIAcore2000), rMIF immobilised on CM5 chip, oxidation state

binding [1]: binds | binding [2]: binds | binding [3]: binds
B1: thioredoxin (TRX), endogenous, of human ATL2 and HL60 cells (enzyme)
chain: VKQIESKTAFQEALDAAGDKLVVVDFSATWCGPCKMIKPFFHSLSEKYSNVIFLEVDVDDCQDVASECEVKCMPTFQFFKKGQKVGEFSGANKEKLEATINELV

binding [4]: binds | binding [5]: binds | binding [6]: binds | binding [7]: binds
B2: His-tagged recombinant TRX (rTRX) expressed in Escherichia coli with vector pQE80L (enzyme, not shown: small tags and cut ends)
chain: MVKQIESKTAFQEALDAAGDKLVVVDFSATWCGPCKMIKPFFHSLSEKYSNVIFLEVDVDDCQDVASECEVKCMPTFQFFKKGQKVGEFSGANKEKLEATINELV

binding [7]: binds | binding [8]: binds
B3: rC35S TRX (the rTRX of EXAMPLE 5 in which the cysteine residue at 35 position was converted to serine) (enzyme, not shown: small tags and cut ends)
chain: B2 chain with C35S

binding [7]: binds
B4: rDM TRX (the rTRX of EXAMPLE 5 in which the cysteine residues at 32 and 35 positions were converted to serine) (enzyme, not shown: small tags and cut ends)
chain: B2 chain with C32S, C35S
